Measured data: PubChem BioAssay AID1259424 (University of Nebraska Medical Center, 2018)
Aim: 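Rank knockdowns across the genome by resemblance to the KSR1 depletion profile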 (primary screen). System: human HCT116 colon cancer cells. Reagent: siRNA pool against human genes, 50 nM. Detection: 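Six signature mRNAs by branched-DNA multiplex assay, scaled to two housekeeping genes and non-targeting median, log2; matched to mean KSR1 knockdown profile by Pearson correlation and euclidean distance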. Reading the numbers: mean correlation with KSR1 profile and KSR1 correlation: higher = expression change more like KSR1 knockdown; mean distance from KSR1 profile: higher = expression change less like KSR1 knockdown.
In all, the deposit lists about 14,000 reagents; shown is a part drawn at random. 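Higher correlation or smaller distance means closer resemblance to KSR1 loss; control wells, including KSR1 knockdowns, recur on many plates.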 Further read-outs or replicates are left out here. The record does not give: the time to read-out.

| target | mean correlation with KSR1 profile | mean distance from KSR1 profile | KSR1 correlation, replicate 1 |
| --- | --- | --- | --- |
| ESPL1 | -0.246 | 1.57 | -0.00118 |
| SAMD4B | 0.116 | 2.17 | -0.0233 |
| GATAD2B | 0.584 | 2.16 | 0.856 |
| ABCC8 | 0.115 | 2.09 | -0.157 |
| PLK3 | 0.111 | 1.57 | 0.431 |
| SMTN | -0.314 | 2.01 | -0.2 |
| RNF112 | 0.0869 | 3.08 | 0.182 |
| PEX7 | -0.216 | 1.57 | -0.0307 |
| KLF4 | 0.0138 | 2.33 | 0.45 |
| ZHX3 | -0.692 | 1.45 | -0.409 |
| ADGRE3 | 0.559 | 1.75 | 0.509 |
| CYP7A1 | -0.00614 | 2.82 | 0.195 |
| TTC23 | -0.0973 | 3.11 | -0.457 |
| DERL2 | -0.374 | 3.61 | -0.158 |
| BCL11A | 0.361 | 2.25 | 0.345 |
| GAL3ST1 | -0.777 | 3.19 | -0.799 |
| CCDC144A | 0.595 | 1.25 | 0.482 |
| POMT1 | 0.343 | 3.06 | 0.366 |
| UNC50 | 0.276 | 1.04 | 0.664 |
| EML2 | 0.495 | 1.87 | 0.829 |
| SIK3 | 0.33 | 1.92 | 0.643 |
| S100A6 | -0.184 | 2.18 | -0.126 |
| IL7R | 0.0417 | 1.21 | 0.0832 |
| PGM1 | 0.162 | 1.55 | 0.369 |
| OGFOD1 | -0.429 | 8.14 | 0.0835 |
| CDYL | -0.916 | 3.96 | -0.925 |
| PERP | 0.199 | 2.72 | 0.0963 |
| CPPED1 | -0.367 | 2.65 | -0.423 |
| CPB1 | -0.803 | 3.82 | -0.792 |
| CRYBG2 | 0.301 | 1.8 | 0.476 |
| MRGPRX3 | 0.759 | 1.87 | 0.8 |
| CDON | -0.198 | 3.33 | -0.15 |
| TRAPPC8 | 0.496 | 1.15 | 0.346 |
| TUBA8 | -0.41 | 1.88 | -0.369 |
| HP1BP3 | -0.441 | 1.95 | -0.399 |
| USP4 | -0.497 | 1.84 | -0.37 |
| RHOBTB2 | 0.833 | 0.721 | 0.786 |
| WDR5B | 0.948 | 1.1 | 0.932 |
| PPP2R1B | -0.123 | 1.1 | -0.000518 |
| HEG1 | -0.105 | 3.28 | 0.0458 |
| THOC5 | -0.101 | 2.24 | 0.282 |
| LDHC | 0.831 | 1.83 | 0.837 |
| NMRK1 | -0.778 | 3.64 | -0.836 |
| FKBP3 | -0.658 | 2.01 | -0.718 |
| MT1B | 0.327 | 1.41 | 0.373 |
| ZNF85 | -0.473 | 2.34 | 0.0647 |
| METTL25B | -0.616 | 4.13 | -0.321 |
| XYLT1 | -0.135 | 2.94 | -0.376 |
| GNG3 | 0.785 | 1.11 | 0.716 |
| SLC7A7 | -0.281 | 2.8 | -0.0678 |

5 of these entries, set out differently:
target,mean correlation with KSR1 profile,mean distance from KSR1 profile,"KSR1 correlation, replicate 1"
CCDC144A,0.595,1.25,0.482
POMT1,0.343,3.06,0.366
UNC50,0.276,1.04,0.664
EML2,0.495,1.87,0.829
SIK3,0.33,1.92,0.643
